Test results as given in publication PMC12713065.

Protein sequences, listed by entry. Tags and fused reporters are not part of them. Lines headed by an entry give the natural chain unless they say otherwise; changes in a name come on top.
UniProt P53396: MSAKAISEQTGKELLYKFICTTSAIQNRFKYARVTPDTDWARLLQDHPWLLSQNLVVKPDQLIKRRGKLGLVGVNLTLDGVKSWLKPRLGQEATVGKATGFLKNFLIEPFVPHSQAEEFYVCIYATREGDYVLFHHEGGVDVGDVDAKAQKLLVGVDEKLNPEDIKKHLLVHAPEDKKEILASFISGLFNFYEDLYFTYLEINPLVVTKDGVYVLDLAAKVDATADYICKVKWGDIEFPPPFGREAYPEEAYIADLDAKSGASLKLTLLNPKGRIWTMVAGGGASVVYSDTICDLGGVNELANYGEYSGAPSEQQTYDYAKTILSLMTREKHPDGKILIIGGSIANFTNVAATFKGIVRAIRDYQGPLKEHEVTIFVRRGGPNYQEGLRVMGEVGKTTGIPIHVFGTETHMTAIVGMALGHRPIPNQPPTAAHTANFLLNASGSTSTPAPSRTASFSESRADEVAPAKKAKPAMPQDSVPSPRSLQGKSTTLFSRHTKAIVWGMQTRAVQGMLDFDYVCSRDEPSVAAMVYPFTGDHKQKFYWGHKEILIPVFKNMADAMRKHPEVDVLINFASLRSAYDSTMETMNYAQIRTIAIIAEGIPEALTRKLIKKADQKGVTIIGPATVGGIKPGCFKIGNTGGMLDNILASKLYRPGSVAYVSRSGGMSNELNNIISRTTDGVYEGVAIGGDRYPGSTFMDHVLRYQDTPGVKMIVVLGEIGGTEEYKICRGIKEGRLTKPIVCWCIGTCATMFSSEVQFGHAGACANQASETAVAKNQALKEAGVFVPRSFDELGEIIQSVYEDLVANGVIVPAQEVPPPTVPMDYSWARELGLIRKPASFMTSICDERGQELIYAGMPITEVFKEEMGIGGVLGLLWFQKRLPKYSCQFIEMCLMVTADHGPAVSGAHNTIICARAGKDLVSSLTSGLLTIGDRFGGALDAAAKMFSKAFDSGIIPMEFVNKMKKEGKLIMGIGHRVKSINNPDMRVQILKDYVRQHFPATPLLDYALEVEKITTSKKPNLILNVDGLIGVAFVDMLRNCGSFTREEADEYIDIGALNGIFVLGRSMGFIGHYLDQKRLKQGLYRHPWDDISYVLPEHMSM

Target: ACLY-K978R stably expressed in HCT8/shACLY cells (UniProt P53396)
Experiment: affinity purification with mass spectrometry; anti-Flag magnetic beads IP from cells expressing Flag-ACLY or Flag-ACLY-K978R (methods: HCT8/shACLY stable cells; legend: HEK293T transfected), SDS-PAGE, LC-MS/MS

binding: binds
B1: endogenous RNA-binding protein 15 (RBM15) (protein, UniProt Q96T37 1-977)
chain: MRTAGRDPVPRRSPRWRRAVPLCETSAGRRVTQLRGDDLRRPATMKGKERSPVKAKRSRGGEDSTSRGERSKKLGGSGGSNGSSSGKTDSGGGSRRSLHLDKSSSRGGSREYDTGGGSSSSRLHSYSSPSTKNSSGGGESRSSSRGGGGESRSSGAASSAPGGGDGAEYKTLKISELGSQLSDEAVEDGLFHEFKRFGDVSVKISHLSGSGSGDERVAFVNFRRPEDARAAKHARGRLVLYDRPLKIEAVYVSRRRSRSPLDKDTYPPSASVVGASVGGHRHPPGGGGGQRSLSPGGAALGYRDYRLQQLALGRLPPPPPPPLPRDLERERDYPFYERVRPAYSLEPRVGAGAGAAPFREVDEISPEDDQRANRTLFLGNLDITVTESDLRRAFDRFGVITEVDIKRPSRGQTSTYGFLKFENLDMSHRAKLAMSGKIIIRNPIKIGYGKATPTTRLWVGGLGPWVPLAALAREFDRFGTIRTIDYRKGDSWAYIQYESLDAAHAAWTHMRGFPLGGPDRRLRVDFADTEHRYQQQYLQPLPLTHYELVTDAFGHRAPDPLRGARDRTPPLLYRDRDRDLYPDSDWVPPPPPVRERSTRTAATSVPAYEPLDSLDRRRDGWSLDRDRGDRDLPSSRDQPRKRRLPEESGGRHLDRSPESDRPRKRHCAPSPDRSPELSSSRDRYNSDNDRSSRLLLERPSPIRDRRGSLEKSQGDKRDRKNSASAERDRKHRTTAPTEGKSPLKKEDRSDGSAPSTSTASSKLKSPSQKQDGGTAPVASASPKLCLAWQGMLLLKNSNFPSNMHLLQGDLQVASSLLVEGSTGGKVAQLKITQRLRLDQPKLDEVTRRIKVAGPNGYAILLAVPGSSDSRSSSSSAASDTATSTQRPLRNLVSYLKQKQAAGVISLPVGGNKDKENTGVLHAFPPCEFSQQFLDSPAKALAKSEEDYLVMIIVRGFGFQIGVRYENKKRENLALTLL

No constants are given. Whether binding was seen depends on the method and setting. Binding seen in cells or lysates may run through a third protein. A yes stands for co-enrichment or nearness to the bait. Other partners may have been found.
